1 molecule from article PMC10511709 can be followed below.

No constants are given. Whether binding was seen depends on the method and setting. Sequences can lack the tags named with a protein.

This experiment deals with NET4B with C-terminal deletion including the IRQ domain, yeast two-hybrid bait (Arabidopsis thaliana). The experiment in a line: two-hybrid; one-on-one mating; pGBKT7 baits in AH109, pGADT7 preys in Y187; growth on SD -WLH + 2.5 mM 3AT at 30 °C for 5-7 days; empty vectors as controls.

B1: CA-RABG3a (constitutive active, Q67L), yeast two-hybrid fusion (protein, UniProt Q948K8 1-206)
chain: MATRRRTLLKVIVLGDSGVGKTSLMNQYVHKKFSMQYKATIGADFVTKELQIGEKLVTLQIWDTAGLERFQSLGAAFYRGADCCALVYDVNVLRSFDNLETWHEEFLKQASPSDPKTFPFIVLGNKIDVDGGSSRVVSDKKAADWCASNGNIPYFETSAKDDFNVDEAFLTIAKTALANEHEQDIYFQGIPDAVTENEPKGGGCAC
Take B1: the binding result is “no binding”.
